Data as given in PubChem BioAssay AID1259254 (NCATS, 2017)
Assay: 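Genome-wide screen for genes that prevent DNA re-replication in cancer cells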 (primary screen). Cell system: human HCT116 colorectal cancer cells. Reagent: single siRNA against human genes. Time to read-out: 3 days. Detection: 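Imaged Hoechst DNA stain sorts each cell into a cycle phase by DNA amount; per plate, G2 fraction set to 0% for non-targeting and 100% for GMNN siRNA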. Scale: G2 robust z-score and G2 cells, % of GMNN control: higher = more G2 cells, more excess DNA replication; raw share of cells in G2: higher = larger share of cells with G2 DNA content. Call rule: 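An siRNA counts as active if its G2 robust z-score lies at least 5 MADs above the screen median; here such calls match roughly 38% of GMNN control or more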.
Shown is a random part of about 59,000 deposited reagents. Over the whole deposit, about 1,550 (2.6%) were called active. 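G2 share is only a proxy for re-replication; each gene was hit by three separate siRNAs, and active genes were retested.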 Raw values vary from plate to plate and are shown uncorrected. A number with no mark means an inactive call. Reagents against one gene are numbered here. Not stated in the record: the amount of reagent.

gene	siRNA no.	G2 robust z-score	G2 cells, % of GMNN control	raw share of cells in G2 (%)
MAP2K7 (mitogen-activated protein kinase kinase 7)	1	-0.135	2.01	6.27
MAP2K7 (mitogen-activated protein kinase kinase 7)	2	0.201	4.38	6.89
MAP2K7 (mitogen-activated protein kinase kinase 7)	3	3.92	30.6	14.8
CCNA1 (cyclin A1)	1	-1.74	-9.27	1.39
CCNA1 (cyclin A1)	2	-0.869	-3.14	4.16
CCNA1 (cyclin A1)	3	-0.475	-0.375	4.37
OR8A1 (olfactory receptor family 8 subfamily A member 1)	1	0.209	4.44	5.29
OR8A1 (olfactory receptor family 8 subfamily A member 1)	2	-1.15	-5.14	1.17
OR8A1 (olfactory receptor family 8 subfamily A member 1)	3	-0.0407	2.68	5.78
PRCD (photoreceptor disc component)	1	0.727	8.08	6.3
PRCD (photoreceptor disc component)	2	-0.475	-0.373	4.13
PRCD (photoreceptor disc component)	3	0.736	8.15	6.13
TNNI2 (troponin I2, fast skeletal type)	1	-0.654	-1.64	4.41
TNNI2 (troponin I2, fast skeletal type)	2	2.29	19.1	11.5
TNNI2 (troponin I2, fast skeletal type)	3	-1.01	-4.11	1.89
CIMIP2A (ciliary microtubule inner protein 2A)	1	-0.817	-2.78	2.8
CIMIP2A (ciliary microtubule inner protein 2A)	2	-0.365	0.401	3.68
CIMIP2A (ciliary microtubule inner protein 2A)	3	0.775	8.42	8.28

Continued, starting with the last 4 of the part before.
gene	siRNA no.	G2 robust z-score	G2 cells, % of GMNN control	raw share of cells in G2 (%)
TNNI2 (troponin I2, fast skeletal type)	3	-1.01	-4.11	1.89
CIMIP2A (ciliary microtubule inner protein 2A)	1	-0.817	-2.78	2.8
CIMIP2A (ciliary microtubule inner protein 2A)	2	-0.365	0.401	3.68
CIMIP2A (ciliary microtubule inner protein 2A)	3	0.775	8.42	8.28
H3C11 (H3 clustered histone 11)	1	-0.786	-2.57	3.99
H3C11 (H3 clustered histone 11)	2	-0.734	-2.19	3.02
H3C11 (H3 clustered histone 11)	3	1.07	10.5	7.06
DNAJC30 (DnaJ heat shock protein family (Hsp40) member C30)	1	-0.0757	2.43	3.65
DNAJC30 (DnaJ heat shock protein family (Hsp40) member C30)	2	0.293	5.03	8.18
DNAJC30 (DnaJ heat shock protein family (Hsp40) member C30)	3	-0.312	0.772	3.88
DHX58 (DExH-box helicase 58)	1	-0.625	-1.43	3.7
DHX58 (DExH-box helicase 58)	2	1.11	10.8	10.1
DHX58 (DExH-box helicase 58)	3	0.21	4.45	5.92
AKT1S1 (AKT1 substrate 1)	1	-0.0117	2.89	5.07
AKT1S1 (AKT1 substrate 1)	2	0.446	6.11	5.27
AKT1S1 (AKT1 substrate 1)	3	0.0755	3.5	3.47
